The effect of the compound repeats well; differences between the knockouts mostly do not.
What was measured:
Test in all cases: relative cell number vs DMSO control (72 h) (% of DMSO); higher = less growth inhibition (more cells)
MDA-MB-231 = test system: MDA-MB-231
Experimental: (§1)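 QMAP-Seq: a pool of 5 breast cancer cell lines (ZR-75-1, SKBR3, HCC-38, MDA-MB-231, BT-20), each carrying 12 doxycycline-inducible Cas9 sgRNA perturbations (11 knockouts plus non-targeting sgNT), was treated with compounds for 72 h at four 10-fold doses (10 nM-10 uM or 1 nM-1 uM range). Barcodes were amplified and sequenced, and cell number was interpolated from 293T spike-in standard curves. The result is expressed as % of the median of DMSO wells. Two biological replicates.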

ZR-75-1 = test system: ZR-75-1
Experimental: as §1

SKBR3 = test system: SKBR3
Experimental: as §1

CCN1CCN(c2ccc(Nc3cc(N(C)C(=O)Nc4c(Cl)c(OC)cc(OC)c4Cl)ncn3)cc2)CC1 [BGJ398]
relative cell number
Details	MDA-MB-231	SKBR3	ZR-75-1
sgRNA knockout: sgATF3, 10 nM	120	82.7	112
sgRNA knockout: sgATF3, 100 nM	95.6	85.5	90.2
sgRNA knockout: sgATF3, 1000 nM	106	93.1	92.2
sgRNA knockout: sgATF3, 10000 nM	74.5	78	71
sgRNA knockout: sgATF4, 10 nM	95.2	97.3	76.2
sgRNA knockout: sgATF4, 100 nM	113	90	106
sgRNA knockout: sgATF4, 1000 nM	81.1	88.4	76.2
sgRNA knockout: sgATF4, 10000 nM	80.9	72.6	82.5
sgRNA knockout: sgATF6, 10 nM	96.8	81.6	46.2
sgRNA knockout: sgATF6, 100 nM	73.6	88.4	112
sgRNA knockout: sgATF6, 1000 nM	66.7	86.9	47.2
sgRNA knockout: sgATF6, 10000 nM	65	59.6	69.8
sgRNA knockout: sgATG7, 10 nM	96.2	76.7	110
sgRNA knockout: sgATG7, 100 nM	102	95.8	97.5
sgRNA knockout: sgATG7, 1000 nM	82.8	77.2	64.1
sgRNA knockout: sgATG7, 10000 nM	88.5	79.41	80.9
sgRNA knockout: sgERN1, 10 nM	101	79.8	102
sgRNA knockout: sgERN1, 100 nM	103	108	118
sgRNA knockout: sgERN1, 1000 nM	66.1	94.2	110
sgRNA knockout: sgERN1, 10000 nM	87.9	62	81
sgRNA knockout: sgHSF1, 10 nM	94.6	83.5	–
sgRNA knockout: sgHSF1, 100 nM	89.8	100	–
sgRNA knockout: sgHSF1, 1000 nM	79	83.8	–
sgRNA knockout: sgHSF1, 10000 nM	74.9	71.3	–
sgRNA knockout: sgHSF2, 10 nM	110	91.5	118
sgRNA knockout: sgHSF2, 100 nM	101	107	95
sgRNA knockout: sgHSF2, 1000 nM	90.1	83.4	78.4
sgRNA knockout: sgHSF2, 10000 nM	78.4	70.3	90.4
sgRNA knockout: sgKEAP1, 10 nM	111	111	–
sgRNA knockout: sgKEAP1, 100 nM	93.2	102	–
sgRNA knockout: sgKEAP1, 1000 nM	84.6	67.3	–
sgRNA knockout: sgKEAP1, 10000 nM	91.5	69.3	–
sgRNA knockout: sgNFE2L2, 10 nM	88.8	86.4	107
sgRNA knockout: sgNFE2L2, 100 nM	98.1	86.5	102
sgRNA knockout: sgNFE2L2, 1000 nM	80.12	65.9	70.1
sgRNA knockout: sgNFE2L2, 10000 nM	77.4	73	64.1
sgRNA knockout: sgSLC35F2, 10 nM	91.6	106	59.2
sgRNA knockout: sgSLC35F2, 100 nM	102	96.4	81.1
sgRNA knockout: sgSLC35F2, 1000 nM	97.4	68.8	68.64
sgRNA knockout: sgSLC35F2, 10000 nM	52.5	70.7	74.9
sgRNA knockout: sgXBP1, 10 nM	69.8	94.6	97.1
sgRNA knockout: sgXBP1, 100 nM	90.3	102	80.4
sgRNA knockout: sgXBP1, 1000 nM	80.8	79.1	69.48
sgRNA knockout: sgXBP1, 10000 nM	73.5	76.9	71.4

c1cc(Nc2cc(C3CC3)[nH]n2)nc(Nc2ccc3nc[nH]c3c2)n1 [APY29]
relative cell number
Details	MDA-MB-231	SKBR3	ZR-75-1
sgRNA knockout: sgATF3, 10 nM	99.3	108	122
sgRNA knockout: sgATF3, 100 nM	55.3	63.2	80.5
sgRNA knockout: sgATF3, 1000 nM	15.7	15.1	30.5
sgRNA knockout: sgATF3, 10000 nM	11.2	8.072	13.3
sgRNA knockout: sgATF4, 10 nM	134	89	123
sgRNA knockout: sgATF4, 100 nM	55.3	45.4	74
sgRNA knockout: sgATF4, 1000 nM	22.6	14.3	40.7
sgRNA knockout: sgATF4, 10000 nM	16.7	6.92	24.8
sgRNA knockout: sgATF6, 10 nM	69.5	107	157
sgRNA knockout: sgATF6, 100 nM	67.4	54.4	83.8
sgRNA knockout: sgATF6, 1000 nM	14.4	13.8	28.1
sgRNA knockout: sgATF6, 10000 nM	14.1	7.62	18.3
sgRNA knockout: sgATG7, 10 nM	80.7	97	119
sgRNA knockout: sgATG7, 100 nM	55.2	38.7	61
sgRNA knockout: sgATG7, 1000 nM	16.2	14.6	27.4
sgRNA knockout: sgATG7, 10000 nM	13.9	6.51	17.4
sgRNA knockout: sgERN1, 10 nM	88.6	103	110
sgRNA knockout: sgERN1, 100 nM	53.1	54.8	78.4
sgRNA knockout: sgERN1, 1000 nM	18.2	15.3	25.3
sgRNA knockout: sgERN1, 10000 nM	11	6.23	26.2
sgRNA knockout: sgHSF1, 10 nM	78.4	84.5	–
sgRNA knockout: sgHSF1, 100 nM	52.4	38.2	–
sgRNA knockout: sgHSF1, 1000 nM	20.2	15.8	–
sgRNA knockout: sgHSF1, 10000 nM	8.91	5.92	–
sgRNA knockout: sgHSF2, 10 nM	101	86.7	131
sgRNA knockout: sgHSF2, 100 nM	44.1	41.1	60.9
sgRNA knockout: sgHSF2, 1000 nM	14.6	13.8	26.1
sgRNA knockout: sgHSF2, 10000 nM	10.7	6.75	17.4
sgRNA knockout: sgKEAP1, 10 nM	108	92.8	–
sgRNA knockout: sgKEAP1, 100 nM	85.3	53.6	–
sgRNA knockout: sgKEAP1, 1000 nM	18.9	14	–
sgRNA knockout: sgKEAP1, 10000 nM	11.1	6.7	–
sgRNA knockout: sgNFE2L2, 10 nM	82.7	89.8	103
sgRNA knockout: sgNFE2L2, 100 nM	66.3	68.2	71.6
sgRNA knockout: sgNFE2L2, 1000 nM	21.3	15.2	27.8
sgRNA knockout: sgNFE2L2, 10000 nM	10.8	5.54	19.4
sgRNA knockout: sgSLC35F2, 10 nM	94.3	106	109
sgRNA knockout: sgSLC35F2, 100 nM	54	52.3	46.7
sgRNA knockout: sgSLC35F2, 1000 nM	16.3	11.3	23.6
sgRNA knockout: sgSLC35F2, 10000 nM	11.3	4.42	23.4
sgRNA knockout: sgXBP1, 10 nM	96.7	102	118
sgRNA knockout: sgXBP1, 100 nM	60.5	46.6	75.9
sgRNA knockout: sgXBP1, 1000 nM	18.83	11.3	25.8
sgRNA knockout: sgXBP1, 10000 nM	14.2	7.2	17.7

From the supplement of paper PMC7661543
